Assay results as given in the supplement of paper PMC10849652.
This is one part of the list.

Protein sequences, listed by entry. Tags and fused reporters are not part of them. Lines headed by an entry give the natural chain unless they say otherwise; changes in a name come on top.
UniProt Q9H2U1: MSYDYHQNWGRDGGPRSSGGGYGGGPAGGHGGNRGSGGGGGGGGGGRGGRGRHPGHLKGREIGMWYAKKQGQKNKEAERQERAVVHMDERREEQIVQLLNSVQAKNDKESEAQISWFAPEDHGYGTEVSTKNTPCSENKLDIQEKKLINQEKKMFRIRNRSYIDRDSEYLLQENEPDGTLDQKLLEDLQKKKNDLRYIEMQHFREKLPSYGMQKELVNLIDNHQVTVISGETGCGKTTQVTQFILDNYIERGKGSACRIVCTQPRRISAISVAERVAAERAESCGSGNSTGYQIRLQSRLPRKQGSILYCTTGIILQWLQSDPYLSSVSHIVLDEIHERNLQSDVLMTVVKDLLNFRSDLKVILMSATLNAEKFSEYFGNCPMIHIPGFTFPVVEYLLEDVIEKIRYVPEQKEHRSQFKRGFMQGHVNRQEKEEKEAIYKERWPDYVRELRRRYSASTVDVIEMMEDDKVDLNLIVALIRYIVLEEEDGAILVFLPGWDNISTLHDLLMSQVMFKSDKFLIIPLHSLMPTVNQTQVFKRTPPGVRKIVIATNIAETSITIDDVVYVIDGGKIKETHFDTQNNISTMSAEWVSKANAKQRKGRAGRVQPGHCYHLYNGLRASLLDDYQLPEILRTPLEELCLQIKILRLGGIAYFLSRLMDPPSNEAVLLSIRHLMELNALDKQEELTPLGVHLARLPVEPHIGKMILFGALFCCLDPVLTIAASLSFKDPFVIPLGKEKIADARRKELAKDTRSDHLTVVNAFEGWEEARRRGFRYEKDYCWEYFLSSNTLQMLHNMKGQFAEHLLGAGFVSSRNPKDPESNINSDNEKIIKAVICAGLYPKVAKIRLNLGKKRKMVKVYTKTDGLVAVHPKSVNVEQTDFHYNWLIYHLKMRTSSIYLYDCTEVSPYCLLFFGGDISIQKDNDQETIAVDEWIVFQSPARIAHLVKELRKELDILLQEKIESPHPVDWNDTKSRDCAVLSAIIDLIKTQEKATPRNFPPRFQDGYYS
UniProt O75907: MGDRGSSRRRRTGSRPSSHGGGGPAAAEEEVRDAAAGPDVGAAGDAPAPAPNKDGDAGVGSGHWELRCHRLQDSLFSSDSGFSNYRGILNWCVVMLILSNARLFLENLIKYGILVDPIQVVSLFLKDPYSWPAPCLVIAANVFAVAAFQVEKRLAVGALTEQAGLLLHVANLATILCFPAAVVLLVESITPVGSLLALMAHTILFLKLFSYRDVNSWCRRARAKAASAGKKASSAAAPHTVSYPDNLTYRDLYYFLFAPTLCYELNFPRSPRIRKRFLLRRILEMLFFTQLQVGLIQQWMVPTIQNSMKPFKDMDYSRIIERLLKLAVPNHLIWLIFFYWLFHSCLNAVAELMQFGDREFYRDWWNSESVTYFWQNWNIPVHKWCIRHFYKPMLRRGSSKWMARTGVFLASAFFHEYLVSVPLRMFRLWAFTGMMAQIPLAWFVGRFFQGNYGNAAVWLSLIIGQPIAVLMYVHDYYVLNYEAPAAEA
UniProt Q9BTZ2: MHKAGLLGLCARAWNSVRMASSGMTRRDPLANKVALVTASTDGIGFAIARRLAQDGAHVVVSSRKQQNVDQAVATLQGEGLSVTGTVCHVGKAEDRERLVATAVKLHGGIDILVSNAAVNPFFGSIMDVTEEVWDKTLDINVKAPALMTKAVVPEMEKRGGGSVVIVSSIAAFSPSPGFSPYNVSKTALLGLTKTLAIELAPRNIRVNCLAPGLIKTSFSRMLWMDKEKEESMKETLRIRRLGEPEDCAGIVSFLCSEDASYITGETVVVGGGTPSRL
UniProt Q92620: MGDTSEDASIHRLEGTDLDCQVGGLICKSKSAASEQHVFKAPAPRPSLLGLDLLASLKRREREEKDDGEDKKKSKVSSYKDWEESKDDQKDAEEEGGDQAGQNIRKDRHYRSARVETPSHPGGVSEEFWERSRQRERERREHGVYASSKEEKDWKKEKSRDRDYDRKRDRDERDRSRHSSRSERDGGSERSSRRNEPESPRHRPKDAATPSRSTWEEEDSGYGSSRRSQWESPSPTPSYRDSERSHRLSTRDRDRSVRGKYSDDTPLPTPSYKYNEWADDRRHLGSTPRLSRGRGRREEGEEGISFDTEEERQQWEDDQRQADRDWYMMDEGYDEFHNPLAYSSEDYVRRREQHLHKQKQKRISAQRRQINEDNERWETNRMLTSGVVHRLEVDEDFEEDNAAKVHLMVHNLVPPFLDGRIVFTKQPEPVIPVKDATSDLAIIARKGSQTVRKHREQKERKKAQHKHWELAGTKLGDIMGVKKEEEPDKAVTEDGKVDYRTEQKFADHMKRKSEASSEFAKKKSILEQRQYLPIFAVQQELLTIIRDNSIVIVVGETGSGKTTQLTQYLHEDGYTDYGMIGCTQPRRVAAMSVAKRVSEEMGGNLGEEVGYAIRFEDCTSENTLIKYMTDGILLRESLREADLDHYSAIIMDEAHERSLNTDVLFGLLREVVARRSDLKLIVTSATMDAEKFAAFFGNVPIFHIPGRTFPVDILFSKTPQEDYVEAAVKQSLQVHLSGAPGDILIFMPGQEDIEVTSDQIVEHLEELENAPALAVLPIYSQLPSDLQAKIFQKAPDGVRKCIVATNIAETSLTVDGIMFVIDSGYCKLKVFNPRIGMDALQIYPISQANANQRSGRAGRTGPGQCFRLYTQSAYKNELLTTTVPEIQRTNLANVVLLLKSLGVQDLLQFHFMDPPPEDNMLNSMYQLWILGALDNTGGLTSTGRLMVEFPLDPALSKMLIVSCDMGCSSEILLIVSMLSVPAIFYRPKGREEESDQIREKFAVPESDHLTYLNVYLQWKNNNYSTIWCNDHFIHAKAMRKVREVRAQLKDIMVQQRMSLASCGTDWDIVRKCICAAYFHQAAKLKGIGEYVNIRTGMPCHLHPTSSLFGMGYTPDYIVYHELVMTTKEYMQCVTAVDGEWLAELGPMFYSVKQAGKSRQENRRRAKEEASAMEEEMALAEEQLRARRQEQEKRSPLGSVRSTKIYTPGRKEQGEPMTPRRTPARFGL
UniProt Q9NR28: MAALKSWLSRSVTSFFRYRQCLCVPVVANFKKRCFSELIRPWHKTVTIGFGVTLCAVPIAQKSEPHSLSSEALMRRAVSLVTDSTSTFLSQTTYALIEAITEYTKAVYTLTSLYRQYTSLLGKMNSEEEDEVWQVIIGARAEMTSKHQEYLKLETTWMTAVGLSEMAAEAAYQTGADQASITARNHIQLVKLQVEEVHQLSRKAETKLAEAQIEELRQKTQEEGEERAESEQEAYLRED
UniProt Q9P265: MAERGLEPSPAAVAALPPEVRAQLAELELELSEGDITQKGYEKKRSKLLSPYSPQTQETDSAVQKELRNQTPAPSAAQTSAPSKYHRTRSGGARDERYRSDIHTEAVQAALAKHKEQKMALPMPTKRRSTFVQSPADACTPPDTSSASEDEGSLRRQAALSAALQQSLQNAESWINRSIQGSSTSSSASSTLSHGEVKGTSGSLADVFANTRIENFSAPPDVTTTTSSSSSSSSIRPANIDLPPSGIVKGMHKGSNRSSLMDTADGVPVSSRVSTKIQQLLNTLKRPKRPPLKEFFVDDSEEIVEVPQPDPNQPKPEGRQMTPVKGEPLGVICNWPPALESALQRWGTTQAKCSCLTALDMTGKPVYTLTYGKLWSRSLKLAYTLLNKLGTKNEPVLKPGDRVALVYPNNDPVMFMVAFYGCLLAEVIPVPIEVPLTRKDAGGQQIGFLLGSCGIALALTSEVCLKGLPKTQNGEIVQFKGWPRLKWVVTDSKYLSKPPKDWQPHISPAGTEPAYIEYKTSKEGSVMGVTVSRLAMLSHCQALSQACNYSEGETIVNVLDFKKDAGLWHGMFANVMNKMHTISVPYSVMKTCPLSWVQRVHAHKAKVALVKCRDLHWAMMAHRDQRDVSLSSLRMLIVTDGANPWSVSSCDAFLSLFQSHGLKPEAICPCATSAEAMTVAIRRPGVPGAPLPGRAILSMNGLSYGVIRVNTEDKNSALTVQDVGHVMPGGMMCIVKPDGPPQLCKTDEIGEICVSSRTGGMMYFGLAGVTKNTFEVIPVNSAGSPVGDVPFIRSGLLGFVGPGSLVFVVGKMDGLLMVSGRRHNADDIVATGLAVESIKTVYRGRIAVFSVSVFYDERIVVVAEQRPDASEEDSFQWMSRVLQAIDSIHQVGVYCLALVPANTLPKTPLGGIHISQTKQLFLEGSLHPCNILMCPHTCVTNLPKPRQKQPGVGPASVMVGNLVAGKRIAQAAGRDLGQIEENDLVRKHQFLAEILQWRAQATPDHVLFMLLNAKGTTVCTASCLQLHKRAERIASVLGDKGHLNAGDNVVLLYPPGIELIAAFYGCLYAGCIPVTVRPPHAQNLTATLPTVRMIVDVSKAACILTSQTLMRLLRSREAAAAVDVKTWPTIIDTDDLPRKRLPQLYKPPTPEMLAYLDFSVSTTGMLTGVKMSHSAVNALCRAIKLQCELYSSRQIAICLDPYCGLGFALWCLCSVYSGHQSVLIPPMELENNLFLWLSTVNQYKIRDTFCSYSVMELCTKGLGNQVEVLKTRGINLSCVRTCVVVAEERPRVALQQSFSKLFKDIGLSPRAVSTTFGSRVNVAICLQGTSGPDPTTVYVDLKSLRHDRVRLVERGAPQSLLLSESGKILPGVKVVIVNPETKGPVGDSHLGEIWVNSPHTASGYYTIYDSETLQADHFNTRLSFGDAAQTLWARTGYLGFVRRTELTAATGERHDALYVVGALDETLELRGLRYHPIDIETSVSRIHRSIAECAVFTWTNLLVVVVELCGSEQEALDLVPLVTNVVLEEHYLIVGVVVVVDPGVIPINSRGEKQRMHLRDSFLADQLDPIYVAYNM
UniProt Q86SQ9: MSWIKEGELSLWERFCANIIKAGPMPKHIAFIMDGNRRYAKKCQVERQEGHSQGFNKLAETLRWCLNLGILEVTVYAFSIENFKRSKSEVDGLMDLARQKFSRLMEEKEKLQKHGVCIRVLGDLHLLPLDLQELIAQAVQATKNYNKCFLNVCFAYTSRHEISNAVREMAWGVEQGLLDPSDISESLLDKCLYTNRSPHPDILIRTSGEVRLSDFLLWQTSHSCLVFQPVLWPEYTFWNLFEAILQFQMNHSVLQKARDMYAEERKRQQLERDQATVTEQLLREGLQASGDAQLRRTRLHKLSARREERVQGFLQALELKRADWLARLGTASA
UniProt Q96EY1: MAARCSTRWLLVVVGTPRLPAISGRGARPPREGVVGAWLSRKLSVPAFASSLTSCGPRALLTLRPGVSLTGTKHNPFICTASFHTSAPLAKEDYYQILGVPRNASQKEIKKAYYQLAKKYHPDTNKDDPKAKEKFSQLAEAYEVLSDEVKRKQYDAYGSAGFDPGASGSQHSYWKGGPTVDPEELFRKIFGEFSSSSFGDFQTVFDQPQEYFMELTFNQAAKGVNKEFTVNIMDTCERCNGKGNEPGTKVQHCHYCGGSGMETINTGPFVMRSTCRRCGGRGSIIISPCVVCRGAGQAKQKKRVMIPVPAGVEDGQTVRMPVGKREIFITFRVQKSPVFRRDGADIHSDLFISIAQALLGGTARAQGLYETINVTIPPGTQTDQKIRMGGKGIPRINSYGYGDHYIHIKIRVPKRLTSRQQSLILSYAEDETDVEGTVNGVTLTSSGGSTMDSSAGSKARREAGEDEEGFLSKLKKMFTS
UniProt Q9NXW2: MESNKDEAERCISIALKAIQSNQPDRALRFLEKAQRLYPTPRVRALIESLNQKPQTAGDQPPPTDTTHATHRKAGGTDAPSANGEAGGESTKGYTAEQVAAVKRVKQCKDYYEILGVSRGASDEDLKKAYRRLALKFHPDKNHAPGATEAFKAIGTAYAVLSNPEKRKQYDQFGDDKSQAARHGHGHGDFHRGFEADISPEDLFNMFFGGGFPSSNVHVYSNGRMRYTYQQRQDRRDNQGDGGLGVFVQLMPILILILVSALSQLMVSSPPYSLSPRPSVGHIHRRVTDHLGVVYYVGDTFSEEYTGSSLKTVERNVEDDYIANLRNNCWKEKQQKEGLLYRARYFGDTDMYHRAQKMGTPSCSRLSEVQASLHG
UniProt O75937: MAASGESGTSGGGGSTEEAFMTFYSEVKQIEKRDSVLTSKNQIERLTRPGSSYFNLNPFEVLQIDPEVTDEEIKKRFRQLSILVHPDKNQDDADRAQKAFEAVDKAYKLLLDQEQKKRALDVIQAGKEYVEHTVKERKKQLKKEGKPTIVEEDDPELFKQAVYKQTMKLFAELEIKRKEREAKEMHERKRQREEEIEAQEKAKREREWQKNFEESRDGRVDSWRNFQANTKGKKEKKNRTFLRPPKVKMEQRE
UniProt Q8WXX5: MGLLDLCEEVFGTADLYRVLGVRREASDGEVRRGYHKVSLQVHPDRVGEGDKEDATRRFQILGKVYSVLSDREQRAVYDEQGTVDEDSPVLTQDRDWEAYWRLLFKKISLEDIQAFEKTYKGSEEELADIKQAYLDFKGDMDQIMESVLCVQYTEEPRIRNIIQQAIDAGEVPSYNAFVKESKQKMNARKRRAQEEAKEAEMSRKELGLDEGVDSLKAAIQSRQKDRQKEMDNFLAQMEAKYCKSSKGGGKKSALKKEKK

Experiments:
Experiment in all cases: log2 fold change, soluble protein after heating vs DMSO (PISA); higher = thermal stabilisation; K562 lysate, 10 uM; active = over 0.2 and 3.5 SD of the protein, either way, in both replicates (recomputed)
[1] = compound: CS(=O)(=O)CCNCc1ccc(-c2ccc3ncnc(Nc4ccc(OCc5cccc(F)c5)c(Cl)c4)c3c2)o1 [lapatinib]
Procedure, shortened: (§1)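 K562 pellets were dounce-homogenised in PBS pH 7.4 with 1 mM MgCl2, and the crude extract at 1 mg/mL protein was treated with 10 μM compound for 30 min. Aliquots were heated for 3 min across 48°C-58°C, pooled, and brought to 0.5% NP-40 at 4°C; soluble protein was the supernatant after 21,000xg for 90 min. Soluble protein was quantified by TMTpro 16plex LC-MS/MS with channel sums equalised, and reported as log2 fold change in thermal stability against DMSO controls, with values from duplicates.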

[2] = compound: CS(=O)(=O)N1CCN(Cc2cc3nc(-c4cccc5[nH]ncc45)nc(N4CCOCC4)c3s2)CC1 [pictilisib]
Procedure, shortened: as §1

[3] = compound: C[C@@H](Oc1cc(-c2cnn(C3CCNCC3)c2)cnc1N)c1c(Cl)ccc(F)c1Cl [crizotinib]
Procedure, shortened: as §1

[4] = compound: C[C@H](C1=CC=C(C=C1)C(=O)NC2=C3C=CNC3=NC=C2)N
Procedure, shortened: as §1

[5] = compound: C[C@H](Nc1ncnc2nc[nH]c12)c1cc2cccc(Cl)c2c(=O)n1-c1ccccc1 [duvelisib]
Procedure, shortened: as §1

[6] = compound: Cc1cc(Nc2cc(CN3CCOCC3)c3nc(C)c(Cc4ccc(Cl)cc4F)n3n2)n[nH]1 [gandotinib]
Procedure, shortened: as §1

[7] = compound: Cc1cc(Nc2cc(N3CCN(C)CC3)nc(Sc3ccc(NC(=O)C4CC4)cc3)n2)n[nH]1 [tozasertib]
Procedure, shortened: as §1

[8] = compound: Cc1ccc(-n2nc(C(C)(C)C)cc2NC(=O)Nc2ccc(OCCN3CCOCC3)c3ccccc23)cc1 [doramapimod]
Procedure, shortened: as §1

[9] = compound: Cc1ccc(NC(=O)c2ccc(CN3CC[C@H](N(C)C)C3)c(C(F)(F)F)c2)cc1Nc1nccc(-c2cncnc2)n1 [bafetinib]
Procedure, shortened: as §1

[10] = compound: Cc1cccc(CC(=O)N2CCc3c2ccc(-c2cn(C)c4ncnc(N)c24)c3F)n1
Procedure, shortened: as §1

[11] = compound: Cc1cn(-c2cc(NC(=O)c3ccc(C)c(Nc4nccc(-c5cccnc5)n4)c3)cc(C(F)(F)F)c2)cn1 [nilotinib]
Procedure, shortened: as §1

[12] = compound: Cc1nc(Nc2n[nH]c3c2CN(C(=O)N[C@H](CN(C)C)c2ccccc2)C3(C)C)c2sccc2n1
Procedure, shortened: as §1

[13] = compound: Cc1nc(Nc2ncc(C(=O)Nc3c(C)cccc3Cl)s2)cc(N2CCN(CCO)CC2)n1 [dasatinib]
Procedure, shortened: as §1

[14] = compound: Cc1ncc(-c2ccnc(Nc3ccc(S(C)(=O)=O)cc3)n2)n1C(C)C
Procedure, shortened: as §1

[15] = compound: Cn1cc(-c2ccc3c(c2)CCN3C(=O)Cc2cccc(C(F)(F)F)c2)c2c(N)ncnc21
Procedure, shortened: as §1

[16] = compound: Cn1cc(CNCC2CCN(c3ncc(C(=O)NO)cn3)CC2)c2ccccc21 [quisinostat]
Procedure, shortened: as §1

[17] = compound: Cn1cncc1[C@@](N)(c1ccc(Cl)cc1)c1ccc2c(c1)c(-c1cccc(Cl)c1)cc(=O)n2C [tipifarnib]
Procedure, shortened: as §1

[18] = compound: NC(=O)Nc1cc(-c2cccc(F)c2)sc1C(=O)N[C@H]1CCCNC1
Procedure, shortened: as §1

[19] = compound: NC(=O)c1cnc(N[C@@H]2CCCC[C@@H]2N)nc1Nc1cccc(-n2nccn2)c1
Procedure, shortened: as §1

[20] = compound: NC1(c2ccc(-c3nc4ccn5c(=O)[nH]nc5c4cc3-c3ccccc3)cc2)CCC1
Procedure, shortened: as §1

Measured: log2 fold change

DMD (UniProt P11532)
inactive: [1] -0.014 | [2] -0.021 | [3] -0.017 | [4] 0.031 | [5] -0.003 | [6] -0.001 | [7] -0.023 | [8] 0.007 | [9] -0.014 | [10] -0.003 | [11] -0.039 | [12] 0.011 | [13] -0.019 | [14] 0.001 | [15] 0.016 | [16] -0.017 | [17] 0.016 | [18] -0.003 | [19] -0.012 | [20] 0.016

DHX36 (UniProt Q9H2U1)
inactive: [1] -0.026 | [2] -0.036 | [3] 0.002 | [4] 0.008 | [5] 0.015 | [6] 0 | [7] -0.021 | [8] 0 | [9] -0.001 | [10] 0.028 | [11] 0.013 | [12] 0.016 | [13] 0.022 | [14] -0.013 | [15] -0.003 | [16] 0.032 | [17] 0.021 | [18] 0.017 | [19] -0.034 | [20] 0

DOCK7 (UniProt Q96N67)
inactive: [1] -0.003 | [2] -0.016 | [3] -0.022 | [4] -0.107 | [5] -0.004 | [6] -0.103 | [7] 0.047 | [8] 0.012 | [9] -0.032 | [10] 0.102 | [11] 0.005 | [12] -0.002 | [13] 0.01 | [14] -0.03 | [15] 0.029 | [16] -0.039 | [17] -0.01 | [18] 0.048 | [19] 0.036 | [20] -0.062

2 records drawn at random from the list so far, as already listed:
DMD (UniProt P11532)
inactive: [1] -0.014 | [2] -0.021 | [3] -0.017 | [4] 0.031 | [5] -0.003 | [6] -0.001 | [7] -0.023 | [8] 0.007 | [9] -0.014 | [10] -0.003 | [11] -0.039 | [12] 0.011 | [13] -0.019 | [14] 0.001 | [15] 0.016 | [16] -0.017 | [17] 0.016 | [18] -0.003 | [19] -0.012 | [20] 0.016

DHX36 (UniProt Q9H2U1)
inactive: [1] -0.026 | [2] -0.036 | [3] 0.002 | [4] 0.008 | [5] 0.015 | [6] 0 | [7] -0.021 | [8] 0 | [9] -0.001 | [10] 0.028 | [11] 0.013 | [12] 0.016 | [13] 0.022 | [14] -0.013 | [15] -0.003 | [16] 0.032 | [17] 0.021 | [18] 0.017 | [19] -0.034 | [20] 0

(listing goes on)

DHFR (UniProt P00374)
inactive: [1] -0.012 | [2] -0.069 | [3] -0.054 | [4] 0.04 | [5] -0.015 | [6] -0.099 | [7] 0.022 | [8] 0.011 | [9] -0.047 | [10] -0.077 | [11] 0.023 | [12] -0.041 | [13] -0.091 | [14] 0.019 | [15] 0.073 | [16] -0.009 | [17] -0.012 | [18] 0.039 | [19] -0.129 | [20] -0.04

DGAT1 (UniProt O75907)
inactive: [1] -0.034 | [2] 0.013 | [3] -0.042 | [4] -0.085 | [5] 0.007 | [6] 0.122 | [7] 0.012 | [8] -0.005 | [9] -0.058 | [10] 0.071 | [11] -0.016 | [12] 0.006 | [13] 0.13 | [14] -0.207 | [15] -0.064 | [16] -0.125 | [17] -0.011 | [18] 0.034 | [19] -0.07 | [20] -0.01

DHRS4 (UniProt Q9BTZ2)
inactive: [1] -0.014 | [2] 0.013 | [3] 0.073 | [4] -0.031 | [5] 0.007 | [6] 0.017 | [7] 0 | [8] 0.01 | [9] 0.01 | [10] 0.023 | [11] -0.022 | [12] -0.006 | [13] -0.003 | [14] -0.002 | [15] -0.024 | [16] 0.054 | [17] -0.003 | [18] -0.025 | [19] -0.008 | [20] 0.006

DHX38 (UniProt Q92620)
inactive: [1] 0.004 | [2] 0.024 | [3] 0.001 | [4] 0.006 | [5] 0.004 | [6] -0.041 | [7] -0.012 | [8] -0.003 | [9] 0.006 | [10] -0.016 | [11] -0.014 | [12] 0.02 | [13] -0.001 | [14] -0.016 | [15] 0.013 | [16] 0.035 | [17] 0.106 | [18] 0.037 | [19] -0.018 | [20] -0.032

DNAJC13 (UniProt O75165)
inactive: [1] 0.001 | [2] -0.023 | [3] -0.054 | [4] -0.067 | [5] 0.005 | [6] 0.007 | [7] 0.036 | [8] 0.005 | [9] -0.057 | [10] 0.068 | [11] -0.008 | [12] 0.004 | [13] -0.012 | [14] 0.027 | [15] 0.007 | [16] -0.047 | [17] 0.021 | [18] 0.007 | [19] -0.004 | [20] -0.004

DIABLO (UniProt Q9NR28)
inactive: [1] -0.009 | [2] -0.029 | [3] -0.001 | [4] -0.057 | [5] 0.033 | [6] 0.023 | [7] -0.001 | [8] 0.015 | [9] -0.044 | [10] 0.028 | [11] 0.018 | [12] -0.025 | [13] -0.019 | [14] 0.022 | [15] 0.019 | [16] -0.064 | [17] 0.029 | [18] -0.006 | [19] -0.003 | [20] 0.017

DIP2B (UniProt Q9P265)
inactive: [1] -0.005 | [2] -0.023 | [3] -0.026 | [4] -0.03 | [5] 0.004 | [6] 0.026 | [7] 0.008 | [8] -0.008 | [9] -0.047 | [10] 0 | [11] 0.017 | [12] -0.002 | [13] 0.027 | [14] 0.004 | [15] 0.02 | [16] -0.044 | [17] 0.041 | [18] 0.013 | [19] -0.019 | [20] -0.021

DHDDS isoform 2 (UniProt Q86SQ9)
inactive: [1] -0.008 | [2] -0.076 | [3] 0.03 | [4] 0.007 | [5] -0.01 | [6] -0.091 | [7] 0.044 | [8] -0.023 | [9] -0.062 | [10] 0.016 | [11] -0.017 | [12] 0.033 | [13] 0.034 | [14] -0.017 | [15] -0.018 | [16] 0.027 | [17] -0.029 | [18] 0.027 | [19] 0.008 | [20] 0.004

DNAJA3 (UniProt Q96EY1)
inactive: [1] 0.004 | [2] 0.078 | [3] -0.055 | [4] 0.035 | [5] 0.02 | [6] -0.005 | [7] -0.029 | [8] -0.047 | [9] -0.011 | [10] 0.057 | [11] -0.005 | [12] -0.002 | [13] -0.012 | [14] -0.077 | [15] 0.051 | [16] -0.017 | [17] -0.05 | [18] 0.033 | [19] 0.064 | [20] -0.018

DNAJB12 (UniProt Q9NXW2)
inactive: [1] -0.008 | [2] -0.059 | [3] -0.005 | [4] 0.103 | [5] -0.014 | [6] -0.095 | [7] -0.031 | [8] -0.02 | [9] -0.019 | [10] -0.025 | [11] -0.094 | [12] 0.095 | [13] 0.044 | [14] 0.01 | [15] -0.105 | [16] -0.044 | [17] -0.018 | [18] 0.012 | [19] 0.035 | [20] -0.021

DNAJC8 (UniProt O75937)
inactive: [1] 0.023 | [2] 0.028 | [3] 0.105 | [4] 0.123 | [5] 0.032 | [6] -0.074 | [7] -0.003 | [8] -0.02 | [9] 0.001 | [10] -0.09 | [11] -0.052 | [12] 0.05 | [13] 0.034 | [14] 0.025 | [15] 0.006 | [16] 0.115 | [17] 0.106 | [18] -0.019 | [19] -0.009 | [20] 0.026

DNAJC9 (UniProt Q8WXX5)
inactive: [1] 0.015 | [2] 0.001 | [3] 0.036 | [4] 0.037 | [5] -0.016 | [6] 0.007 | [7] -0.04 | [8] -0.006 | [9] 0.044 | [10] -0.108 | [11] 0.018 | [12] 0.007 | [13] 0.003 | [14] 0.008 | [15] -0.022 | [16] 0.057 | [17] 0.025 | [18] 0.016 | [19] -0.016 | [20] 0.009

DOCK11 (UniProt Q5JSL3)
inactive: [1] -0.006 | [2] 0.009 | [3] -0.043 | [4] -0.051 | [5] -0.003 | [6] -0.045 | [7] 0.025 | [8] 0.045 | [9] -0.019 | [10] 0.043 | [11] -0.024 | [12] 0.015 | [13] -0.036 | [14] -0.01 | [15] 0.006 | [16] -0.057 | [17] -0.002 | [18] 0.055 | [19] 0.02 | [20] 0.021
